Data as given in PubChem BioAssay AID686937 (Drosophila RNAi Screening Center, 2013).

Purpose: 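Genes in the fly needed for secretion of protein constitutively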 (primary screen)
System: Drosophila S2 cells expressing secreted horseradish peroxidase
Knock-down reagent: long dsRNA against Drosophila genes
Duration: about 5.5 days (5 days dsRNA, then 12 h reporter induction)
Challenge: reporter expression induced after 5 days of dsRNA, read 12 h later; inducer not stated
Measured: 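After 5 days of dsRNA and 12 h of reporter induction, medium peroxidase read by chemiluminescence and scored as per-plate z-score; higher values mean more reporter released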
Reading the numbers: z-score: higher = more reporter secreted into medium
The screen tested about 23,000 reagents; this is an unselected part of those with a known target gene and a result. 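Reduced-secretion tags in replicate 1 do not always agree with the z-scores; no criterion for assigning the tags was given.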 The numbers tell different reagents against one gene apart. Further read-outs or replicates are left out here. Not given: the amount of reagent.

What did the screen give for mRpL24?
z-score, replicate 1: 0.06

For CG15550, what was measured?
z-score, replicate 1: 0.04

Which result is listed for nonA?
z-score, replicate 1: -0.07

For Lsm12a, what does the deposit list?
z-score, replicate 1: 0.25

With bel, how do the results read?
z-score, replicate 1: -0.82

For CG12310, how do the results read?
z-score, replicate 1: 0.24

For Gr22f, what does the deposit list?
z-score, replicate 1: 0.18

With Cad74A, how do the results read?
z-score, replicate 1: 0.01

With VhaAC45RP, what does the deposit list?
z-score, replicate 1: -1.59

What did the screen give for Msr-110?
z-score, replicate 1: 0.8

For Msh6, how do the results read?
z-score, replicate 1: 0.15

What is on record for CG8520?
z-score, replicate 1: 0.27

With CG9806, what does the deposit list?
z-score, replicate 1: 0.26

For CG10444, what does the deposit list?
z-score, replicate 1: -5.81

For Pp1-13C, how do the results read?
z-score, replicate 1: -0.04

What did the screen give for CG4661?
z-score, replicate 1: 0.28

What is on record for Fie?
z-score, replicate 1: 0.31

For Gr93c, what was measured?
z-score, replicate 1: 0.29

For m-cup, how do the results read?
z-score, replicate 1: -0.01

For Mur11Da, how do the results read?
z-score, replicate 1: 0.57

With Chd1, what does the deposit list?
z-score, replicate 1: 0.48

For CG5890, what was measured?
z-score, replicate 1: 0.19

What is on record for CG10055?
z-score, replicate 1: 0.13

With Dok, what was measured?
z-score, replicate 1: -0.58

With Pomp, how do the results read?
z-score, replicate 1: -6.09

Which result is listed for CG42383?
z-score, replicate 1: -0.41

For CG42671 #1, how do the results read?
z-score, replicate 1: -0.88

With CG42671 #2, what does the deposit list?
z-score, replicate 1: 0.57

What did the screen give for CG42615?
z-score, replicate 1: -0.21

Which result is listed for CG14260?
z-score, replicate 1: 0.19

With Gba1a, how do the results read?
z-score, replicate 1: 0.55

How did the screen score Gr10a #1?
z-score, replicate 1: 0.74

What is on record for Gr10a #2?
z-score, replicate 1: 0.12

For CG17575, what was measured?
z-score, replicate 1: 0.3

With olf186-M, how do the results read?
z-score, replicate 1: -0.72

What did the screen give for Kmn1?
z-score, replicate 1: -0.89

For CG5611, what was measured?
z-score, replicate 1: 0.6

Which result is listed for CG13921?
z-score, replicate 1: -0.21

With Sfp26Ad, how do the results read?
z-score, replicate 1: -1.37

With CkIIalpha, what was measured?
z-score, replicate 1: -0.57

4 of these entries, set out differently:
predicted target,reagent,"z-score, replicate 1"
Gr10a,1,0.74
Gr10a,2,0.12
CG17575,1,0.3
olf186-M,1,-0.72
